Values joined by “and” are separate entries in the source; they are usually repeats but may differ in a detail not shown here. Equal entries are not always repeated. At least one read-out could not be matched to a standard name with certainty.
Test system: cerebrospinal fluid (CSF) glycine levels
Assay: CSF-glycine assay after oral administration
Format: in vivo
Details: rats, dose 30 mg/kg, pretreatment 120 mins, Hydrochloride
Description: This study measured cerebrospinal fluid (CSF) glycine levels after oral administration of test compound. […] After the specified pretreatment time, the rats were euthanized by CO2 asphyxiation and a hypodermic needle was inserted into the cisterna magna to withdraw 50-100 μl of CSF. The CSF was diluted with deuterated-glycine as an internal standard glycine was quantified by LC/MS/MS.

For `Cl.Cn1cc(S(=O)(=O)N2CCN(C3(CNC(=O)c4ccc(F)cc4Cl)CCC(F)(F)CC3)CC2)nn1` [compound 192, 2-Chloro-N-((4,4-difluoro-1-(4-(1-methyl-1H-1,2,3-triazol-4-ylsulfonyl)piperazin-1-yl)cyclohexyl)methyl)-4-fluorobenzamide Hydrochloride], the “% CSF Glycine Increase versus Vehicle Control” value was 219% and 363%.
